Reference: patent US20250388543A1, “HETEROARYL COMPOUNDS FOR THE TREATMENT OF PAIN” (VERTEX PHARMACEUTICALS INCORPORATED, priority 2022, published 2025)
Some of these results come from one statement about several compounds together.

Protein sequences, listed by entry. Tags and fused reporters are not part of them. Residues count along the entry.
UniProt Q9Y5Y9, 126-1722 limits assumed: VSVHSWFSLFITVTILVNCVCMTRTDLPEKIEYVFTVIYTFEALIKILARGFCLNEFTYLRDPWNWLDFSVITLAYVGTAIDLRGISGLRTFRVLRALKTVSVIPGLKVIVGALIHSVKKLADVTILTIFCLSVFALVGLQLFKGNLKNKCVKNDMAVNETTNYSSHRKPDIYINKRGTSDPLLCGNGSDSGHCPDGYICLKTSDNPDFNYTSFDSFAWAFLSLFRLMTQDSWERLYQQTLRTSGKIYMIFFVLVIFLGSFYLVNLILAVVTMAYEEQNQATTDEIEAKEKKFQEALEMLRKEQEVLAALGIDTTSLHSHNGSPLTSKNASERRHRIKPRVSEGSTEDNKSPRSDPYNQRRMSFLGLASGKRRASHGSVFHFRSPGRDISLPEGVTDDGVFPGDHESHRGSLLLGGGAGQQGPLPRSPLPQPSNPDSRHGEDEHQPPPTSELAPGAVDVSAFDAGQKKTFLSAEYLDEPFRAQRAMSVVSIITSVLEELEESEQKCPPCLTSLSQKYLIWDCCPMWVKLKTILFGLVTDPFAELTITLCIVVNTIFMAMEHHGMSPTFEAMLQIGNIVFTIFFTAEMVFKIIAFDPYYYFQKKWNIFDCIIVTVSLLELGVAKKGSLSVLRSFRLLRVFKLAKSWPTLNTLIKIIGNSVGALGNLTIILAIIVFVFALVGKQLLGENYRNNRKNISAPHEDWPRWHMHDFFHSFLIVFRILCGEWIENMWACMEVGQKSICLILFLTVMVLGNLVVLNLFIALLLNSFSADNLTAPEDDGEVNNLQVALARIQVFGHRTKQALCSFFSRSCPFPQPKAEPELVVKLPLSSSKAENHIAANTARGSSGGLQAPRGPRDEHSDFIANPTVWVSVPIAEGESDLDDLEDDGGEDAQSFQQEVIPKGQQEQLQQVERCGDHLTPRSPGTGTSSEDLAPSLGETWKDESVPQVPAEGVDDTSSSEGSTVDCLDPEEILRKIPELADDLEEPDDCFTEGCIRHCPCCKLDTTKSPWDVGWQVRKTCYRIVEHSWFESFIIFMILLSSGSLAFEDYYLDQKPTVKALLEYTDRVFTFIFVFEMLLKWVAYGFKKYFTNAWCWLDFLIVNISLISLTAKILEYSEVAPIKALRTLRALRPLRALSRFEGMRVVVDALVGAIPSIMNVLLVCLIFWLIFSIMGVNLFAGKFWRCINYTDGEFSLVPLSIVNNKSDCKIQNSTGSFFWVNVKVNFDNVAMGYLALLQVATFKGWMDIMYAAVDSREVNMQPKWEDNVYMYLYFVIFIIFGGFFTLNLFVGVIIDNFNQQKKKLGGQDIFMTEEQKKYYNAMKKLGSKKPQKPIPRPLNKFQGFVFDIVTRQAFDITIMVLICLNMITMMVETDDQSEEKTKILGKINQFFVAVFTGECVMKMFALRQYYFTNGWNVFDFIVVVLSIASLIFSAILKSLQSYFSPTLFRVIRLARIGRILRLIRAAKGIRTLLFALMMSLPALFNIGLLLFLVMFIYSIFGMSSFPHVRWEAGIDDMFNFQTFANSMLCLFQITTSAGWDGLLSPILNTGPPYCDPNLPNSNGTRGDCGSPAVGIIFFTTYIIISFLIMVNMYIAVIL

target: human NaV 1.8 (Homo sapiens, UniProt Q9Y5Y9); test: E-VIPR Assay Detecting and Measuring NaV Inhibition Properties; assay type: cell-based; conditions: HEK cells expressing a truncated form of human NaV 1.8 with full channel activity; electrical stimulation, membrane-potential FRET dyes; 30 minutes compound incubation; read-out: measured IC50 value in the E-VIPR Assay
From the text: E-VIPR Assay Detecting and Measuring NaV Inhibition Properties
Sodium ion channels are voltage-dependent proteins that can be activated by inducing membrane voltage changes by applying electric fields. The electrical stimulation instrument and methods of use, referred to as E-VIPR, are described in International Publication No. WO 2002/008748 A3 and C.-J. Huang et al. Characterization of voltage-gated sodium channel blockers by electrical stimulation and fluorescence detection of membrane potential, 24 Nature Biotech. 439-46 (2006), both of which are incorporated by reference in their entirety. The instrument comprises a microtiter plate handler, an optical system for exciting the coumarin dye while simultaneously recording the coumarin and oxonol emissions, a waveform generator, a current- or voltage-controlled amplifier, and parallel electrode pairs that are inserted into assay plate wells. Under integrated computer control, this instrument passes user-programmed electrical stimulus protocols to cells within the wells of the microtiter plate.
16-20 hours prior to running the assay on E-VIPR, HEK cells expressing a truncated form of human NaV 1.8 with full channel activity were seeded into microtiter 384-well plates, pre-coated with matrigel, at a density of 25,000 cells per well. 2.5-5% KIR2.1 BacMam virus was added to the final cell suspension before seeding into cell plates. HEK cells were grown in Dulbecco's Modified Eagle's Medium (DMEM) supplemented with 10% FBS (Fetal Bovine Serum, qualified; Sigma #F4135), 1% NEAA (Non-Essential Amino Acids, Gibco #11140), 1% HEPES (Gibco #15630), 1% Pen-Strep (Penicillin-Streptomycin; Gibco #15140) and 5 μg/ml Blasticidin (Gibco #R210-01). Cells were expanded in 5-layer CellSTACK culture chambers or cell culture flasks with vented caps, with 90-95% humidity and 5% CO2.
Reagents and Stock Solutions:
100 mg/mL Pluronic F-127 (Sigma #P2443), in dry DMSO
Compound Plates: Corning 384-well Polypropylene Round Bottom #3656
Cell Plates: 384-well tissue culture treated plates (Greiner #781091-2B)
2.5-5% KIR 2.1 Bacmam virus (produced in-house), prepared as described in Section 3.3 of J. A. Fornwald et al., Gene Expression in Mammalian Cells Using BacMam, a Modified Baculovirus System, 1350 Methods in Molecular Biology 95-116 (2016), the entire contents of which are incorporated by reference. The concentration used can be dependent on viral titer of each batch.
5 mM DiSBAC6(3), a voltage sensitive oxonol acceptor (CAS number 169211-44-3; 5-[3-(1,3-dihexylhexahydro-4,6-dioxo-2-thioxo-5-pyrimidinyl)-2-propen-1-ylidene]-1,3-dihexyldihydro-2-thioxo-4,6(1H,5H)-pyrimidinedione), in dry DMSO. The preparation of DiSBAC6(3) is analogous to that of DiSBAC4(3) as described in Voltage Sensing by Fluorescence Resonance Energy Transfer in Single Cells, Gonzalez, J. E. and Tsien, R. Y. (1995) Biophys. J. 69, 1272-1280.
5 mM CC2-DMPE, a commercially available membrane-bound coumarin phospholipid FRET donor (ThermoFisher Scientific catalog number K1017, CAS number 393782-57-5; tetradecanoic acid, 1,1′-[(1R)-1-[8-(6-chloro-7-hydroxy-2-oxo-2H-1-benzopyran-3-yl)-3-hydroxy-3-oxido-8-oxo-2,4-dioxa-7-aza-3-phosphaoct-1-yl]-1,2-ethanediyl]ester) was prepared in dry DMSO. See also, Improved indicators of cell membrane potential that use fluorescence resonance energy transfer, Gonzalez, J. E. and Tsien, R. Y. (1997) Chem. Biol. 4, 269-277.
Voltage Assay Background Suppression Compound (VABSC-1) is prepared in H2O (89-363 mM, range used to maintain solubility)
Human Serum (HS, Millipore #S1P1-01KL, or Sigma SLBR5469V and SLBR5470V as a 50%/50% mixture, for 25% assay final concentration)
Sodium Chloride 160 mM (9.35 g/L), Potassium Chloride, 4.5 mM (0.335 g/L), Glucose 10 mM (1.8 g/L), Magnesium Chloride (Anhydrous) 1 mM (0.095 g/L), Calcium Chloride 2 mM (0.222 g/L), HEPES 10 mM (2.38 g/L) in water. […]

IC50, < 500 nM:
COC(=O)c1c(-c2cc(F)c(C(F)(F)F)cc2Oc2ccc(F)c(F)c2OC)[nH]c(C)c(OC)c1=O [Compound 48, methyl 2-[2-(3,4-difluoro-2-methoxy-phenoxy)-5-fluoro-4-(trifluoromethyl)phenyl]-5-methoxy-6-methyl-4-oxo-1H-pyridine-3-carboxylate]
COC(=O)c1c(-c2cc3ccccc3nc2Oc2ccc(F)c(F)c2C)[nH]c(C)c(OC)c1=O [Compound 49]
CCOC(=O)c1c(C)[nH]c(-c2cc(C)c(C(F)(F)F)nc2Oc2ccc(F)c(F)c2C)c(C)c1=O [Compound 50, ethyl 6-[2-(3,4-difluoro-2-methyl-phenoxy)-5-methyl-6-(trifluoromethyl)-3-pyridyl]-2,5-dimethyl-4-oxo-1H-pyridine-3-carboxylate]
CCOC(=O)c1c(-c2cc(C(F)(F)F)cnc2Oc2ccc(F)c(F)c2C)[nH]c(C)c(C)c1=O [Compound 51, ethyl 2-[2-(3,4-difluoro-2-methyl-phenoxy)-5-(trifluoromethyl)-3-pyridyl]-5,6-dimethyl-4-oxo-1H-pyridine-3-carboxylate]
CCOC(=O)c1c(C)[nH]c(-c2cc3ccccc3nc2N2CCCC(F)(F)CC2)c(C)c1=O [Compound 52, ethyl 6-[2-(4,4-difluoroazepan-1-yl)-3-quinolyl]-2,5-dimethyl-4-oxo-1H-pyridine-3-carboxylate]
CCOC(=O)c1c(-c2cc(C)c(C(F)(F)F)nc2Oc2ccc(F)c(F)c2C)[nH]c(C)c(OC)c1=O [Compound 53, ethyl 2-[2-(3,4-difluoro-2-methyl-phenoxy)-5-methyl-6-(trifluoromethyl)-3-pyridyl]-5-methoxy-6-methyl-4-oxo-1H-pyridine-3-carboxylate]
Cc1[nH]c(-c2cc(Cl)c(C(F)(F)F)nc2N2CCCC(F)(F)CC2)cc(=O)c1C [Compound 54, 6-[5-chloro-2-(4,4-difluoroazepan-1-yl)-6-(trifluoromethyl)-3-pyridyl]-2,3-dimethyl-1H-pyridin-4-one]
COC(=O)c1c(-c2cc(C(F)(F)F)ncc2Oc2ccc(F)c(F)c2OC)[nH]c(C)c(OC)c1=O [Compound 56, methyl 2-[5-(3,4-difluoro-2-methoxy-phenoxy)-2-(trifluoromethyl)-4-pyridyl]-5-methoxy-6-methyl-4-oxo-1H-pyridine-3-carboxylate]
COc1c(Oc2cc(C(F)(F)F)c(F)cc2-c2nc(=O)cc(C)[nH]2)ccc(F)c1F [Compound 57, 2-[2-(3,4-difluoro-2-methoxy-phenoxy)-5-fluoro-4-(trifluoromethyl)phenyl]-6-methyl-1H-pyrimidin-4-one]
CCOC(=O)c1c(-c2cc(C(F)(F)F)ncc2Oc2ccc(F)c(F)c2OC)[nH]c(C)c(OC)c1=O [Compound 58, ethyl 2-[5-(3,4-difluoro-2-methoxy-phenoxy)-2-(trifluoromethyl)-4-pyridyl]-5-methoxy-6-methyl-4-oxo-1H-pyridine-3-carboxylate]
CCOC(=O)c1c(C)[nH]c(-c2cc(C(F)(F)F)ncc2Oc2ccc(F)c(F)c2OC)c(C)c1=O [Compound 59, ethyl 6-[5-(3,4-difluoro-2-methoxy-phenoxy)-2-(trifluoromethyl)-4-pyridyl]-2,5-dimethyl-4-oxo-1H-pyridine-3-carboxylate]
CCOC(=O)c1c(C)[nH]c(-c2cc3ccccc3nc2N2CCCC(F)(F)CC2)c(N(C)C)c1=O [Compound 60, ethyl 6-[2-(4,4-difluoroazepan-1-yl)-3-quinolyl]-5-(dimethylamino)-2-methyl-4-oxo-1H-pyridine-3-carboxylate]
CCOC(=O)c1c(C)[nH]c(-c2cc3ccccc3nc2Oc2ccc(F)c(F)c2C)c(N(C)C)c1=O [Compound 61, ethyl 6-[2-(3,4-difluoro-2-methyl-phenoxy)-3-quinolyl]-5-(dimethylamino)-2-methyl-4-oxo-1H-pyridine-3-carboxylate]
